Reference: publication PMC9179584
No constants are given. Whether binding was seen depends on the method and setting. Binding seen in cells or lysates may run through a third protein. Some binding calls cover weakened binding; strength is not graded here.

Sequences of proteins named here, by UniProt entry; tags and fusion partners are left off.
UniProt P84022: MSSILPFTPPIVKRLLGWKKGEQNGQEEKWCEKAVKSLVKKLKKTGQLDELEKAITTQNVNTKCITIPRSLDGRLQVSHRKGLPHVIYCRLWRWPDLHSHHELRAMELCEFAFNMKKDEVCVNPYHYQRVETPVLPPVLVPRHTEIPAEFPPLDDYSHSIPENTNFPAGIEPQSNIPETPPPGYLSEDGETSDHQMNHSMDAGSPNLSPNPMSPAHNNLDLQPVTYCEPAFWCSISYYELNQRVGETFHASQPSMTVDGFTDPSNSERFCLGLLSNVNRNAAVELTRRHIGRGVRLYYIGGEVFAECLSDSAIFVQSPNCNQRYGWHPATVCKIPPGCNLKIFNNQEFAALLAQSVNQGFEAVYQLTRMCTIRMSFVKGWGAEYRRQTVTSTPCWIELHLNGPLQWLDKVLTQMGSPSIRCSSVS
UniProt Q15796: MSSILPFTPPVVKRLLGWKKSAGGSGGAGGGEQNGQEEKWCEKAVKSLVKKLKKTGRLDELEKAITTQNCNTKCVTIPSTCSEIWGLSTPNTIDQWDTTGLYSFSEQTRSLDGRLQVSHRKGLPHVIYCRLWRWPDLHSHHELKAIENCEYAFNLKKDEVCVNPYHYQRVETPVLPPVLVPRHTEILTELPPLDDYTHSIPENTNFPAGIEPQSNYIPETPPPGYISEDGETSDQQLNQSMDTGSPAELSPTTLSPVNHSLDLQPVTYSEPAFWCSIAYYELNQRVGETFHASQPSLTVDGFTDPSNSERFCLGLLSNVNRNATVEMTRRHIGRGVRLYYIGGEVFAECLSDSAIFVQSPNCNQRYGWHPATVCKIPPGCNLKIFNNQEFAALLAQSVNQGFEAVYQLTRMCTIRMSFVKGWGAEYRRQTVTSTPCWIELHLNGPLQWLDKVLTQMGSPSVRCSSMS

Assays:
[1] = biological target: SMAD3 wild type, overexpressed from pCMV5b-SMAD3 (UniProt P84022); experiment: co-IP; HT-1080 cells transiently transfected with SMAD2 or SMAD3 constructs; NP-40 lysate, 500 µg protein, IP of SMAD2 or SMAD3 overnight at 4 °C, protein A-agarose; SARA blotted
[2] = biological target: SMAD2 wild type, overexpressed from pCMV5b-SMAD2 (UniProt Q15796); experiment: as above
[3] = biological target: SMAD2 (human (endogenous in HT-1080)) (UniProt Q15796); experiment: co-IP; endogenous proteins, HT-1080 cells under normoxic (21% O2) or hypoxic (1% O2) conditions; NP-40 lysate, IP of SMAD2 or SMAD3 overnight at 4 °C, protein A-agarose; SARA blotted
[4] = biological target: SMAD3 (human (endogenous in HT-1080)) (UniProt P84022); experiment: as above

binding [1]: binds | binding [2]: binds | binding [3]: binds | binding [4]: binds
B1: SMAD Anchor for Receptor Activation (SARA) (protein, UniProt O95405 1-1425)
chain: MENYFQAEAYNLDKVLDEFEQNEDETVSSTLLDTKWNKILDPPSHRLSFNPTLASVNESAVSNESQPQLKVFSLAHSAPLTTEEEDHCANGQDCNLNPEIATMWIDENAVAEDQLIKRNYSWDDQCSAVEVGEKKCGNLACLPDEKNVLVVAVMHNCDKRTLQNDLQDCNNYNSQSLMDAFSCSLDNENRQTDQFSFSINESTEKDMNSEKQMDPLNRPKTEGRSVNHLCPTSSDSLASVCSPSQLKDDGSIGRDPSMSAITSLTVDSVISSQGTDGCPAVKKQENYIPDEDLTGKISSPRTDLGSPNSFSHMSEGILMKKEPAEESTTEESLRSGLPLLLKPDMPNGSGRNNDCERCSDCLVPNEVRADENEGYEHEETLGTTEFLNMTEHFSESQDMTNWKLTKLNEMNDSQVNEEKEKFLQISQPEDTNGDSGGQCVGLADAGLDLKGTCISESEECDFSTVIDTPAANYLSNGCDSYGMQDPGVSFVPKTLPSKEDSVTEEKEIEESKSECYSNIYEQRGNEATEGSGLLLNSTGDLMKKNYLHNFCSQVPSVLGQSSPKVVASLPSISVPFGGARPKQPSNLKLQIPKPLSDHLQNDFPANSGNNTKNKNDILGKAKLGENSATNVCSPSLGNISNVDTNGEHLESYEAEISTRPCLALAPDSPDNDLRAGQFGISARKPFTTLGEVAPVWVPDSQAPNCMKCEARFTFTKRRHHCRACGKVFCASCCSLKCKLLYMDRKEARVCVICHSVLMNAQAWENMMSASSQSPNPNNPAEYCSTIPPLQQAQASGALSSPPPTVMVPVGVLKHPGAEVAQPREQRRVWFADGILPNGEVADAAKLTMNGTSSAGTLAVSHDPVKPVTTSPLPAETDICLFSGSITQVGSPVGSAMNLIPEDGLPPILISTGVKGDYAVEEKPSQISVMQQLEDGGPDPLVFVLNANLLSMVKIVNYVNRKCWCFTTKGMHAVGQSEIVILLQCLPDEKCLPKDIFNHFVQLYRDALAGNVVSNLGHSFFSQSFLGSKEHGGFLYVTSTYQSLQDLVLPTPPYLFGILIQKWETPWAKVFPIRLMLRLGAEYRLYPCPLFSVRFRKPLFGETGHTIMNLLADFRNYQYTLPVVQGLVVDMEVRKTSIKIPSNRYNEMMKAMNKSNEHVLAGGACFNEKADSHLVCVQNDDGNYQTQAISIHNQPRKVTGASFFVFSGALKSSSGYLAKSSIVEDGVMVQITAENMDSLRQALREMKDFTITCGKADAEEPQEHIHIQWVDDDKNVSKGVVSPIDGKSMETITNVKIFHGSEYKANGKVIRWTEVFFLENDDQHNCLSDPADHSRLTEHVAKAFCLALCPHLKLLKEDGMTKLGLRVTLDSDQVGYQAGSNGQPLPSQYMNDLDSALVPVIHGGACQLSEGPVVMELIFYILENIV
